# These are yes or no findings as the source states them, for the method shown. Binding seen in cells or lysates may run through a third protein. These calls come from enrichment with a bait or labelling near it, and not all partners need be listed. For some assays here: Sequences can lack the tags named with a protein.
# Protein sequences, listed by entry. Tags and fused reporters are not part of them.
# UniProt Q9CQJ4: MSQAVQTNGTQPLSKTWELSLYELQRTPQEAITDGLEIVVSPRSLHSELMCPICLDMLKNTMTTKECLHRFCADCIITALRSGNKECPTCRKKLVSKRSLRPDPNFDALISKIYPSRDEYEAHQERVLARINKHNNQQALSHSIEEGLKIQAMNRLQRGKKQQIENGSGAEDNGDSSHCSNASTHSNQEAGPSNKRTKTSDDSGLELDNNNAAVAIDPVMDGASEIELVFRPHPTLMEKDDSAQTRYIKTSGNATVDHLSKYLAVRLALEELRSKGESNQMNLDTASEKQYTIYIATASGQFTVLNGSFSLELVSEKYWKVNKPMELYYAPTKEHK
# T1: Cbx7-EGFP, Q8VDS3
# T1 chain: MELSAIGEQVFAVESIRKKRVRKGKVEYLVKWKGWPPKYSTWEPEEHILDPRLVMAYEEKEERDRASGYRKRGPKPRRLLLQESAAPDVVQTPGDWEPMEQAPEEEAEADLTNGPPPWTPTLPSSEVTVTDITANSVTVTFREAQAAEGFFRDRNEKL
# What was measured:
# Cbx7-EGFP = Cbx7-EGFP (UniProt Q8VDS3); test: affinity purification with mass spectrometry; GFP IP on GFP nanotrap beads from SILAC-labeled Cbx7-EGFP (heavy) and EGFP (light) ESCs
# [1] = biological target: Ring1b (mouse (endogenous in ESCs)) (UniProt Q9CQJ4); test: affinity purification with mass spectrometry; IP with a monoclonal anti-Ring1b antibody from SILAC-labeled nuclear extracts of ESCs (heavy) and differentiated ESCs (light)
# Cbx7-EGFP, Q8VDS3 = biological target: T1, Cbx7-EGFP, Q8VDS3; test: affinity purification with mass spectrometry; GFP IP on GFP nanotrap beads from SILAC-labeled Cbx7-EGFP (heavy) and EGFP (light) ESCs; details: remark: other sources report otherwise
binding (Cbx7-EGFP),binding [1],"binding (Cbx7-EGFP, Q8VDS3)",Binder
binds,binds,–,"Mblr (protein, UniProt Q99NA9 1-353) MDEAETDATENKRASEAKRASAMPPPPPPPPPISPPALIPAPAAGEEGPASLGQAGAAGCSRSRPPALEPERSLGRLRGRFEDYDEELEEEEEMEEEEEEEEEMSHFSLRLESGRADSEDEEERLINLVELTPYILCSICKGYLIDATTITECLHTFCKSCIVRHFYYSNRCPKCNIVVHQTQPLYNIRLDRQLQDIVYKLVINLEEREKKQMHDFYKERGLEVPKPAAPQPVPSSKGKTKKVLESVFRIPPELDMSLLLEFIGANEDTGHFKPLEKKFVRVSGEATIGHVEKFLRRKMGLDPACQVDIICGDHLLERYQTLREIRRAIGDTAMQDGLLVLHYGLVVSPLKIT"
binds,binds,–,"Phc2 (protein, UniProt Q9QWH1 1-850) MENELPVPHTSNRASVTTNTSGTNSSSGCISSSGGGGGSGGRPTAPQISVYSGIPDRQTVQVIQQALHRQPSTAAQYLQQMYAAQQQHLMLQTAALQQQHLSSAQLQSLAAVQQASLVANRQGSTPGSSVSSQAPAQSSSLNLAASPAAAQLINRAQSVNSAAASGLAQQAVLLGNTSSPALTASQAQMYLRAQMLIFTPTATVATVQPELCTGSPARPPTPAQVQNLTLRTQQTPAAAASGPPPTQPVLPSLALKPTPSSSQPLPAPPQGRTMAQGSPAGAKPSGTDNAPETLKAGDGNCNMEGRPGPGRAVPAVATHPLIAPAYAHLQSHQLLPQPPAKHPQPQFVAQQQPQPPRPAPQVQSQPQLASVSPSLALQSSPEDHALPLGSVTQALPLQCSTTHVHKPGNSQQCHLPTLDTGSQNGHPEGGSHPPQRRFQHTSAVILQVQPASPVTPQQCAPDDWKEVVPAEKSVPVARPGPSPHQQAIIPAIPGGLPGPKSPNIQQCPAHETGQGIVHALTDLSSPGMTSGNGNSASSIAGTAPQNGENKPPQAIVKPQILTHVIEGFVIQEGAEPFPVGRSSLLVGNLKKKYAQGFLPEKPPQQDHTTTTDSEMEEPYLQESKEEGTPLKLKCELCGRVDFAYKFKRSKRFCSMACAKRYNVGCTKRVGLFHSDRSKLQKAGTTTHNRRRASKASLPTLTKDTKKQPSGTVPLSVTAALQLAHSQEDSSRCSDNSSYEEPLSPISASSSTSRRRQGQRDLDLPDMHMRDLVGVGHHFLPSEPTKWNVEDVYEFIRSLPGCQEIAEEFRAQEIDGQALLLLKEDHLMSAMNIKLGPALKIYARISMLKDS"
–,binds,–,"Mel18 (protein, UniProt P23798 1-342) MHRTTRIKITELNPHLMCALCGGYFIDATTIVECLHSFCKTCIVRYLETNKYCPMCDVQVHKTRPLLSIRSDKTLQDIVYKLVPGLFKDEMKRRRDFYAAYPLTEVPNGSNEDRGEVLEQEKGALGDDEIVSLSIEFYEGVRDREEKKNLTENGDGDKEKTGVRFLRCPAAMTVMHLAKFLRNKMDVPSKYKVEILYEDEPLKEYYTLMDIAYIYPWRRNGPLPLKYRVQPACKRLTLPTVPTPSEGTNTSGASECESVSDKAPSPATLPATSSSLPSPATPSHGSPSSHGPPATHPTSPTPPSTAAGTTTATNGGTSNCLQTPSSTSRGRKMTVNGAPCPP"
–,–,binds,"Mel18, P23798 1-342 (protein) MHRTTRIKITELNPHLMCALCGGYFIDATTIVECLHSFCKTCIVRYLETNKYCPMCDVQVHKTRPLLSIRSDKTLQDIVYKLVPGLFKDEMKRRRDFYAAYPLTEVPNGSNEDRGEVLEQEKGALGDDEIVSLSIEFYEGVRDREEKKNLTENGDGDKEKTGVRFLRCPAAMTVMHLAKFLRNKMDVPSKYKVEILYEDEPLKEYYTLMDIAYIYPWRRNGPLPLKYRVQPACKRLTLPTVPTPSEGTNTSGASECESVSDKAPSPATLPATSSSLPSPATPSHGSPSSHGPPATHPTSPTPPSTAAGTTTATNGGTSNCLQTPSSTSRGRKMTVNGAPCPP"
–,binds,–,"Phc1 (protein, UniProt Q64028 1-1010) METESEQNSSSTNGSSSSGASSRPQIAQMSLYERQAVQALQALQRQPNAAQYFHQFMLQQQLSNAQLHSLAAVQQATIAASRQASSPNSSTAQQQTATTQASMNLATTSAAQLISRSQSVSSPSATTLTQSVLLGNTTSPPLNQSQAQMYLRPQLGNLLQVNRTLGRNVPLASQLILMPNGAVAAVQQEVPPAQSPGVHADADQVQNLAVRNQQASAQGPQMPGSTQKAIPPGASPVSGLSQTSSQALAVAQASSGASGQSLNLSQAGGGSGNSLPGSMGPGGGGQAPGGLGQLPSSGLTGGSCPRKGTGVVQPLPAAQTVTVSQGSQTEAESAAAKKAEADGSGQQSVGMNLTRTATPAPSQTLISSATYTQIQPHSLIQQQQQIHLQQKQVVIQQQIAIHHQQQFQHRQSQLLHTATHLQLAQQQQQQQQQQQQQQQQQQQQQQGTTLTAPQPPQVPPTQQVPPSQSQQQAQTLVVQPMLQSSPLTLPPEPTSKPPIPIQSKPPVAPIKPPQLGAAKMSATQQPPPHIPVQVVGTRQPGSAQAQALGLAQLAAAVPTPRGITGAVQPGQAHLASSPPSSQAAPGALQECPPALAAGMTLAPVQGTAHVVKGGPTASSPVVAQVPAAFYMQSVHLPGKAQTLAVKRKAESEEERDDLSALASVLPTKASPAAESPKVIEEKNSLGEKAEPVASLNANPPNSDLVALAPTPSAPPPTLALVSRQMGDSKPPQAIVKPQILTHIIEGFVIQEGAEPFPVGCSQFLKETKKPLQAGLPTGLNESQPSGPLGGDSPSVELEKKANLLKCEYCGKYAPAEQFRGSKRFCSMTCAKRYNVSCSHQFRLKRKKMKEFQEASYARVRRRGPRRSSSDIARAKIQGKRHRGQEDSSRGSDNSSYDEALSPTSPGPLSVRAGHGERDLGNTITTPSTPELQGINPVFLSSNPSQWSVEEVYEFIASLQGCQEIAEEFRSQEIDGQALLLLKEEHLMSAMNIKLGPALKICAKINVLKET"
–,–,binds,"Phc1, Q64028 1-1010 (protein) METESEQNSSSTNGSSSSGASSRPQIAQMSLYERQAVQALQALQRQPNAAQYFHQFMLQQQLSNAQLHSLAAVQQATIAASRQASSPNSSTAQQQTATTQASMNLATTSAAQLISRSQSVSSPSATTLTQSVLLGNTTSPPLNQSQAQMYLRPQLGNLLQVNRTLGRNVPLASQLILMPNGAVAAVQQEVPPAQSPGVHADADQVQNLAVRNQQASAQGPQMPGSTQKAIPPGASPVSGLSQTSSQALAVAQASSGASGQSLNLSQAGGGSGNSLPGSMGPGGGGQAPGGLGQLPSSGLTGGSCPRKGTGVVQPLPAAQTVTVSQGSQTEAESAAAKKAEADGSGQQSVGMNLTRTATPAPSQTLISSATYTQIQPHSLIQQQQQIHLQQKQVVIQQQIAIHHQQQFQHRQSQLLHTATHLQLAQQQQQQQQQQQQQQQQQQQQQQGTTLTAPQPPQVPPTQQVPPSQSQQQAQTLVVQPMLQSSPLTLPPEPTSKPPIPIQSKPPVAPIKPPQLGAAKMSATQQPPPHIPVQVVGTRQPGSAQAQALGLAQLAAAVPTPRGITGAVQPGQAHLASSPPSSQAAPGALQECPPALAAGMTLAPVQGTAHVVKGGPTASSPVVAQVPAAFYMQSVHLPGKAQTLAVKRKAESEEERDDLSALASVLPTKASPAAESPKVIEEKNSLGEKAEPVASLNANPPNSDLVALAPTPSAPPPTLALVSRQMGDSKPPQAIVKPQILTHIIEGFVIQEGAEPFPVGCSQFLKETKKPLQAGLPTGLNESQPSGPLGGDSPSVELEKKANLLKCEYCGKYAPAEQFRGSKRFCSMTCAKRYNVSCSHQFRLKRKKMKEFQEASYARVRRRGPRRSSSDIARAKIQGKRHRGQEDSSRGSDNSSYDEALSPTSPGPLSVRAGHGERDLGNTITTPSTPELQGINPVFLSSNPSQWSVEEVYEFIASLQGCQEIAEEFRSQEIDGQALLLLKEEHLMSAMNIKLGPALKICAKINVLKET"

# Reference: PMC3277884
